Experimental data: the supplement of paper PMC10849652
The list shows a part of the results.

Chains of the proteins cited; added tags and fusions are not shown. Lines headed by an entry give the natural chain unless they say otherwise; changes in a name come on top.
UniProt P62937, whole entry, looked up: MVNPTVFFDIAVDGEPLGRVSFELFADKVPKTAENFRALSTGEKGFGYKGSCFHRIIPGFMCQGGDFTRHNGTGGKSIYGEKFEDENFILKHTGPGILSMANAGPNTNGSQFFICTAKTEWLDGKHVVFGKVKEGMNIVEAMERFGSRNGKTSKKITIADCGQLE
UniProt Q9HBL7: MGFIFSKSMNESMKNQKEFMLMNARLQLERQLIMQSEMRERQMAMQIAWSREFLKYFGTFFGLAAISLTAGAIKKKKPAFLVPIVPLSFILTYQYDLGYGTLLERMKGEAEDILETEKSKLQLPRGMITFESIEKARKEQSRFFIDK
UniProt Q9NRX1: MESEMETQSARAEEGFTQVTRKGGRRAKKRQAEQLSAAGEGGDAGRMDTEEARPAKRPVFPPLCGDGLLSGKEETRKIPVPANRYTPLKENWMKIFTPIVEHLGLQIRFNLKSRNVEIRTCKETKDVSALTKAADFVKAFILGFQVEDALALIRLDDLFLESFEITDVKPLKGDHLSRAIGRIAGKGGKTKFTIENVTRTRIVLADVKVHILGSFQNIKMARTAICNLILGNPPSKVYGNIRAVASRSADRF
UniProt Q9HAB8: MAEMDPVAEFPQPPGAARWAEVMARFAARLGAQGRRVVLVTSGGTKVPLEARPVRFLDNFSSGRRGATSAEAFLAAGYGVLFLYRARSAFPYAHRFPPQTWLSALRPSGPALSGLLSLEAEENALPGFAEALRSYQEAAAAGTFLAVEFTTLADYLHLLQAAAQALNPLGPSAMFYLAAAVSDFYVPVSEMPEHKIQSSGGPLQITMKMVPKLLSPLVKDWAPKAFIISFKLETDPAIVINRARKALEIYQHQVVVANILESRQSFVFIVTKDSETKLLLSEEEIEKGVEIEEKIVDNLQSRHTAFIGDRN
UniProt P16435: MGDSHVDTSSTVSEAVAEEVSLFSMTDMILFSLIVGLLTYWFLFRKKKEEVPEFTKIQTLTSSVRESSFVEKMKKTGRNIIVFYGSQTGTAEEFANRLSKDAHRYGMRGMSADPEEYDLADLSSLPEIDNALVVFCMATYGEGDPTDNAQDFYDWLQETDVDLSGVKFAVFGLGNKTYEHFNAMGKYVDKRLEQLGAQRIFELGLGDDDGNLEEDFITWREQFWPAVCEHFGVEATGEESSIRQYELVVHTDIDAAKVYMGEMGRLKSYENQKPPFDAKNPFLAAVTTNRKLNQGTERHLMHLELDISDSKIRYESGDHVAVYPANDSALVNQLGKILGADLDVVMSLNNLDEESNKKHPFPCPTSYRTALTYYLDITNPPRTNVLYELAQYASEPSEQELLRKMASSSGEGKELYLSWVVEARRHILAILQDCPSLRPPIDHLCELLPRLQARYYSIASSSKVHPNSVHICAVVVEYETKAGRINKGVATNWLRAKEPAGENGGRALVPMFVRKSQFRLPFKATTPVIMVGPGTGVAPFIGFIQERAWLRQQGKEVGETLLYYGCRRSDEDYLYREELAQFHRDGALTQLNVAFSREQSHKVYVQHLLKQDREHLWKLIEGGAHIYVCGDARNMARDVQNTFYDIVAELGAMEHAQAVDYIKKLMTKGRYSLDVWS
UniProt O00469: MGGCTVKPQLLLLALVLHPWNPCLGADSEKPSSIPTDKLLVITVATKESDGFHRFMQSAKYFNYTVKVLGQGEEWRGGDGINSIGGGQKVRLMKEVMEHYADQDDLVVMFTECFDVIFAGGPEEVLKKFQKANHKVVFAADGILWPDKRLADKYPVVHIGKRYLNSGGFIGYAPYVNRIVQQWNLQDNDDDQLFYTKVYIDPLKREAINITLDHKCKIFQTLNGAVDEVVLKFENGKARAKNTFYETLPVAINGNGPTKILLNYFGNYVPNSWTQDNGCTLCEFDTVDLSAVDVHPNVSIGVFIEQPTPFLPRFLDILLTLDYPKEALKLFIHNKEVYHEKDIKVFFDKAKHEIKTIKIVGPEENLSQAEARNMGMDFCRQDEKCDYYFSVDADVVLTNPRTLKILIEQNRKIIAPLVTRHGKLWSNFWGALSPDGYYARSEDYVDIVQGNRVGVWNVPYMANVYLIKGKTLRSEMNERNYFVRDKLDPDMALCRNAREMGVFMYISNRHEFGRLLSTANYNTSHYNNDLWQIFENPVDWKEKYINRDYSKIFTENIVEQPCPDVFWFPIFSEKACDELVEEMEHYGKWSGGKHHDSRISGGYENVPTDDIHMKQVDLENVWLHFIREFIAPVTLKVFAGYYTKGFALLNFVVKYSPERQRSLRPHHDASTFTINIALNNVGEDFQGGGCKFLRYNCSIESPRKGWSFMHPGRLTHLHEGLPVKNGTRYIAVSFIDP
UniProt Q8NEY8: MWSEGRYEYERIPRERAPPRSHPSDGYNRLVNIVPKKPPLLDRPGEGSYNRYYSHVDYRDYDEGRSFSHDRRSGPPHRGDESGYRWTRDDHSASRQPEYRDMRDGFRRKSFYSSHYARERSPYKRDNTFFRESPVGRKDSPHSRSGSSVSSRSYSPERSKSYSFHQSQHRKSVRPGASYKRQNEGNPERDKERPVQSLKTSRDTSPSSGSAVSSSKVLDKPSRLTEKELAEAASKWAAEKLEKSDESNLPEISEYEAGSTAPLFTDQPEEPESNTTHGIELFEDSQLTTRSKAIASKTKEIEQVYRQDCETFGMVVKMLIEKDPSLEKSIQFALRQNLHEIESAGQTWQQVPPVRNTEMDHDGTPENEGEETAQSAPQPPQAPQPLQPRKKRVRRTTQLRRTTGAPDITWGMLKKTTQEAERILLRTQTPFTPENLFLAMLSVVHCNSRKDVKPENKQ
UniProt Q9Y2G5: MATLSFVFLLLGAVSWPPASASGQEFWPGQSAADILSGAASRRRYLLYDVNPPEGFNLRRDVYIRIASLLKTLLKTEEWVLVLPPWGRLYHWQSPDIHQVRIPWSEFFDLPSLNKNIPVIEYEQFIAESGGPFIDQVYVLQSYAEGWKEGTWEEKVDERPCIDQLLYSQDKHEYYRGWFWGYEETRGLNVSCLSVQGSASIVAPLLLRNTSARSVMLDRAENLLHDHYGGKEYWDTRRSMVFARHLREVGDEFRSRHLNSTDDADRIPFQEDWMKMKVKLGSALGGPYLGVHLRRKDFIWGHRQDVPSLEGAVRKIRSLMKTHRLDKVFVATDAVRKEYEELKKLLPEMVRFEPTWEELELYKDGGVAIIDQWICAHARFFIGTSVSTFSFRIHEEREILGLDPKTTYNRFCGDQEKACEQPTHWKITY
UniProt Q8WZA1: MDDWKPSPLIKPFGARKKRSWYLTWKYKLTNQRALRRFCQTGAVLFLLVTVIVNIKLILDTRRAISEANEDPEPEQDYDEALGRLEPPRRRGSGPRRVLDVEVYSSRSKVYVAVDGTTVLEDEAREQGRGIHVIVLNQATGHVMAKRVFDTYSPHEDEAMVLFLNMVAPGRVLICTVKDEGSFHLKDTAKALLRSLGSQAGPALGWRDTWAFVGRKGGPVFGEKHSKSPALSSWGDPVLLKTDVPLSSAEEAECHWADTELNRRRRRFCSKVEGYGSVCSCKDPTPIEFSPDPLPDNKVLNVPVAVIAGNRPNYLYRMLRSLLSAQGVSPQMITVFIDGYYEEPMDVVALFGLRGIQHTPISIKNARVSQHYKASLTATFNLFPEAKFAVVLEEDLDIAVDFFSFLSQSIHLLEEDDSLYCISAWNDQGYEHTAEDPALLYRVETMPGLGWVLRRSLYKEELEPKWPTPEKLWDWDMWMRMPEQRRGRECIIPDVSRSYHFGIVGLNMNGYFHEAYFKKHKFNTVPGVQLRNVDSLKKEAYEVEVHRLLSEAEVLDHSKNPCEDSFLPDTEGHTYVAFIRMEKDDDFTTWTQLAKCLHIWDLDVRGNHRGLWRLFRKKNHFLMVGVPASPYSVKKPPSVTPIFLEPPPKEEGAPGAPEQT
UniProt O75334: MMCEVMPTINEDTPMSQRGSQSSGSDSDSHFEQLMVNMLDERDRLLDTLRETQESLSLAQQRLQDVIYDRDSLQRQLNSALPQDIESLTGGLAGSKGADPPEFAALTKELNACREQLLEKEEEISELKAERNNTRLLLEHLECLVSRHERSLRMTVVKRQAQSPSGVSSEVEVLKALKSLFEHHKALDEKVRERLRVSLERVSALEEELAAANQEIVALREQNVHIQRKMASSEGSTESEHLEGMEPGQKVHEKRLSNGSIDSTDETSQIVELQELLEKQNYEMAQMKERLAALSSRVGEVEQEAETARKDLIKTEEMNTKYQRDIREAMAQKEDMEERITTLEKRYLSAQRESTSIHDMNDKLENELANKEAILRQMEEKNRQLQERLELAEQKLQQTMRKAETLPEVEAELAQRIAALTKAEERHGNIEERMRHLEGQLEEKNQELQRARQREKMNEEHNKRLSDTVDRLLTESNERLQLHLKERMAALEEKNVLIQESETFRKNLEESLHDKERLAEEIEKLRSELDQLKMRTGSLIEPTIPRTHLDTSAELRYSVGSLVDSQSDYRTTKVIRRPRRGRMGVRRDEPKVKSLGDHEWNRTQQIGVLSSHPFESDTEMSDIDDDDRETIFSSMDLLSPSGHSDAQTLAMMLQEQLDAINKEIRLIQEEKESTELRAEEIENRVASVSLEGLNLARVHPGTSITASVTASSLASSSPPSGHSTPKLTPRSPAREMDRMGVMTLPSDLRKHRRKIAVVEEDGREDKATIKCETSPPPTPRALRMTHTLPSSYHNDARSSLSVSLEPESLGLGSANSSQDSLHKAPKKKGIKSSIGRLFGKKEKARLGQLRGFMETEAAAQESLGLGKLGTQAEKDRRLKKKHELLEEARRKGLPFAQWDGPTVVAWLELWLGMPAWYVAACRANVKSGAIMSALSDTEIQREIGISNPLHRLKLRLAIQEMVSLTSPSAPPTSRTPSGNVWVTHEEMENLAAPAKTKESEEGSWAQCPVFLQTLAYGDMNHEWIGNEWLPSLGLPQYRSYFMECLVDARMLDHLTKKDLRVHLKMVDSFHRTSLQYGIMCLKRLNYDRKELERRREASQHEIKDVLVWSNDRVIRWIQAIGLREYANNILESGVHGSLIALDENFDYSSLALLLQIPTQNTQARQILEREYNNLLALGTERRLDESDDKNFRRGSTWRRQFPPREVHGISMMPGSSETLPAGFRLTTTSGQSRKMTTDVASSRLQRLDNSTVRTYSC
UniProt O75817: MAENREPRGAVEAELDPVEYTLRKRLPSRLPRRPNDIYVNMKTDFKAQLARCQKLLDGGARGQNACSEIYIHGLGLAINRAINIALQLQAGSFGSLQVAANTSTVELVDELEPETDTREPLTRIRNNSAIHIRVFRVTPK
UniProt O15318: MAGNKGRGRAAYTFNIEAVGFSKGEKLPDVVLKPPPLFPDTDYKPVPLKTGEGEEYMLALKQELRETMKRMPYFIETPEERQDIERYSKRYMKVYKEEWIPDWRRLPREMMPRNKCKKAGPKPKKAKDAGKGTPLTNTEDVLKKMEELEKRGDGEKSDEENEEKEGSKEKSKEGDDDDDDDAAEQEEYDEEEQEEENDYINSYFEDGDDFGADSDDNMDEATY
UniProt Q6P1K2: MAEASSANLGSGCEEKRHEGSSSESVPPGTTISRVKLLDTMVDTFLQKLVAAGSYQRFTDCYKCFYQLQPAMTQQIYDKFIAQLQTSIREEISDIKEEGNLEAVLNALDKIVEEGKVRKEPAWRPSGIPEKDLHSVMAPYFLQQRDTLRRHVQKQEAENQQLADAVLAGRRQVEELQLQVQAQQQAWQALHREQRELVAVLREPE
UniProt Q9NZ53: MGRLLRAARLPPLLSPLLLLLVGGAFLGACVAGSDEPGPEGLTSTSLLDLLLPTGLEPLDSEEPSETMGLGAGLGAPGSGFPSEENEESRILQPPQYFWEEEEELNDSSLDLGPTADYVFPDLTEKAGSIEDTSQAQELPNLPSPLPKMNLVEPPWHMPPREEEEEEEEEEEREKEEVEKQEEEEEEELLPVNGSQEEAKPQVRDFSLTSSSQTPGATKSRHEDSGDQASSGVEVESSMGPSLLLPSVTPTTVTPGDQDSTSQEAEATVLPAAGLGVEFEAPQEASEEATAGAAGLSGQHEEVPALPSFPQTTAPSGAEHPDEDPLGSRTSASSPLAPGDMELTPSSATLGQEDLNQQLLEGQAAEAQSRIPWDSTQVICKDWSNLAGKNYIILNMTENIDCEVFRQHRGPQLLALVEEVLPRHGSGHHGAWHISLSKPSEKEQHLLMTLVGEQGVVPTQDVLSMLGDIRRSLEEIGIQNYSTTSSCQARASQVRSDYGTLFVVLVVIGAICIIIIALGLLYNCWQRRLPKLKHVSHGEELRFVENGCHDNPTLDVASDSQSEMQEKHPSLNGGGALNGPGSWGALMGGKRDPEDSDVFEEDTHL
UniProt Q9H1D9: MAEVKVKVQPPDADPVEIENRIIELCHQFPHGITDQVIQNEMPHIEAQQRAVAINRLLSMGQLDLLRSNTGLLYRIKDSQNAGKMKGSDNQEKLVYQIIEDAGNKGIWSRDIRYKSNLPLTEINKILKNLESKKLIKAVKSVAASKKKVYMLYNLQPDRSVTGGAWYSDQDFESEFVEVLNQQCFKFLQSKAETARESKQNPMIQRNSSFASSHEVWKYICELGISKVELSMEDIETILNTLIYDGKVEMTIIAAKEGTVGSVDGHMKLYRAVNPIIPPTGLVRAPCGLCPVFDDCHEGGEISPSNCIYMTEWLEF

Compound: c1cn2cc(-c3ccc4cn[nH]c4c3)nc(Nc3ccc(N4CCOCC4)cc3)c2n1 [entospletinib]
Assay: log2 fold change, soluble protein after heating vs DMSO (PISA); higher = thermal stabilisation; K562 cells, 10 uM, 30 min; active = over 0.2 and 3.5 SD of the protein, either way, in both replicates (recomputed)
Summary of the method: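 Values are thermal stability changes relative to control samples and are taken from duplicates. They are stated as log2 fold changes. Before quantification by TMTpro 16plex LC-MS/MS with equalised channel sums, K562 cells at 2×10^6 cells/mL were treated with 10 μM compound for 30 min, heated in aliquots for 3 min across 48°C-58°C, pooled, extracted in PBS with 0.5% NP-40 at 4°C, and centrifuged at 21,000xg for 90 min to give the soluble supernatant.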

log2 fold change, inactive:
PPCDC (UniProt Q96CD2) -0.094, PPIA (UniProt P62937) 0.02, PPIB (UniProt P23284) -0.005, PLGRKT (UniProt Q9HBL7) -0.181, POLR3C (UniProt Q9BUI4) 0.007, PLEKHF2 (UniProt Q9H8W4) -0.016, PLVAP (UniProt Q9BX97) 0.086, POLE4 (UniProt Q9NR33) 0.074, PNO1 (UniProt Q9NRX1) -0.062, PPCS (UniProt Q9HAB8) 0.021, POR (UniProt P16435) -0.032, PLOD2 isoform 2 (UniProt O00469) 0.018, PPHLN1 (UniProt Q8NEY8) -0.004, POFUT2 (UniProt Q9Y2G5) 0, POLR1C (UniProt O15160) 0.083, PPM1A isoform 3 (UniProt P35813) 0.011, POMGNT1 isoform 2 (UniProt Q8WZA1) 0.147, PPFIA2 (UniProt O75334) 0.04, PNP (UniProt P00491) -0.016, PPIP5K2 (UniProt H0Y9S9) 0.163, POP7 (UniProt O75817) 0.126, PPAN isoform 3 (UniProt Q9NQ55) -0.064, POLR3A (UniProt O14802) 0.066, POLR3G (UniProt O15318) -0.114, PMF1 (UniProt Q6P1K2) -0.017, PPIE (UniProt Q9UNP9) -0.034, PNKD isoform 3 (UniProt Q8N490) 0.077, PODXL2 (UniProt Q9NZ53) -0.025, POLR3F (UniProt Q9H1D9) 0.019, POLR2L (UniProt P62875) 0.164
